{
  "sequences": {"note": "The chains behind the UniProt entries cited, without tags or fusion partners. Where a name states a change or a piece, a line headed by the entry shows the natural chain unless it says otherwise.", "UniProt P17076": "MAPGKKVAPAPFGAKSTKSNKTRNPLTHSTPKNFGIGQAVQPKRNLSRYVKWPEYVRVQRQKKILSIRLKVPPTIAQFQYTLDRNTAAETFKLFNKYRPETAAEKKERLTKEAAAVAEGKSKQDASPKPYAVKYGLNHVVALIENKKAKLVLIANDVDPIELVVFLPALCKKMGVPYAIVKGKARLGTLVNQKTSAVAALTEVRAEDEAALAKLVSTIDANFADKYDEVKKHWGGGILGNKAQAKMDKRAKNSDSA"},
  "source": "paper PMC13034042",
  "target": "TurboID-tagged Rpl8 (both baits) (S. cerevisiae) (UniProt P17076)",
  "experiment": "proximity labelling; TurboID-fused bait expressed from a centromeric CUP1-promoter plasmid in S. cerevisiae YDK11-5A; 500 μM copper sulphate and 500 μM biotin for 1 h at 30°C; biotinylated proteins purified on streptavidin agarose and identified by LC-MS/MS; enrichment against the GFP-TurboID and NLS-GFP-TurboID type controls",
  "note": "No constants are given. Whether binding was seen depends on the method and setting. In cells and extracts the contact can be indirect. Here binding means that the protein was enriched with, or labelled near, the bait; the list need not be complete.",
  "data": [
    {"binder": "Kap123 (endogenous) (protein, UniProt P40069 1-1113) MDQQFLSQLEQTLHAITSGVGLKEATKTLQTQFYTQPTTLPALIHILQNGSDDSLKQLAGVEARKLVSKHWNAIDESTRASIKTSLLQTAFSEPKENVRHSNARVIASIGTEELDGNKWPDLVPNLIQTASGEDVQTRQTAIFILFSLLEDFTSSLSGHIDDFLALFSQTINDPSSLEIRSLSAQALNHVSALIEEQETINPVQAQKFAASIPSVVNVLDAVIKADDTMNAKLIFNCLNDFLLLDSQLTGNFIVDLIKLSLQIAVNSEIDEDVRVFALQFIISSLSYRKSKVSQSKLGPEITVAALKVACEEIDVDDELNNEDETGENEENTPSSSAIRLLAFASSELPPSQVASVIVEHIPAMLQSANVFERRAILLAISVAVTGSPDYILSQFDKIIPATINGLKDTEPIVKLAALKCIHQLTTDLQDEVAKFHEEYLPLIIDIIDSAKNIVIYNYATVALDGLLEFIAYDAIAKYLDPLMNKLFYMLESNESSKLRCAVVSAIGSAAFAAGSAFIPYFKTSVHYLEKFIQNCSQIEGMSEDDIELRANTFENISTMARAVRSDAFAEFAEPLVNSAYEAIKTDSARLRESGYAFIANLAKVYGENFAPFLKTILPEIFKTLELDEYQFNFDGDAEDLAAFADSANEEELQNKFTVNTGISYEKEVASAALSELALGTKEHFLPYVEQSLKVLNEQVDESYGLRETALNTIWNVVKSVLLASKVEPESYPKGIPASSYVNADVLAVIQAARETSMGNLSDEFETSMVITVMEDFANMIKQFGAIIIMDNGDSSMLEALCMQVLSVLKGTHTCQTIDIEEDVPRDEELDASETEATLQDVALEVLVSLSQALAGDFAKVFDNFRPVVFGLFQSKSKNKRSSAVGAASELALGMKEQNPFVHEMLEALVIRLTSDKSLEVRGNAAYGVGLLCEYASMDISAVYEPVLKALYELLSAADQKALAAEDDEATREIIDRAYANASGCVARMALKNSALVPLEQTVPALLAHLPLNTGFEEYNPIFELIMKLYQENSPVITNETPRIIEIFSAVFTKENDRIKLEKESTLGREENMERLKQFQTEEMKHKVIELLKYLNTTYNGIVAQNPVLAAVIA", "values": [
      {"measurement": "binding", "result": "binds"}
    ]}
  ]
}
